Laboratory results: PubChem BioAssay AID1053208 (Peter MacCallum Cancer Centre, 2014)

- Aim: 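Synthetic lethal interactions between gene loss and doxorubicin in osteosarcoma cells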 (primary screen)
- Cells: mouse osteosarcoma cells, early-passage culture from an engineered mouse model of fibroblastic bone tumour
- Reagents: siRNA pool against mouse genes, 40 nM
- Timing: about 120 h (48 h before drug, then 72 h with drug)
- Conditions: doxorubicin 100 nM for 72 h, roughly 30-40% inhibitory dose
- Measured: 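Viability read as ATP luminescence after 72 h of 100 nM doxorubicin or none, duplicate wells averaged, scaled to non-targeting siRNA, then expressed as robust z-scores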
- Scale: viability z-score with doxorubicin: higher = more viable cells under doxorubicin; viability z-score without drug: higher = more viable cells with knock-down alone
- Call rule: 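Called active if knock-down leaves viability unchanged without drug (z within -2 to 2) but lowers it with doxorubicin (z at or under -2)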
Shown is one part, drawn at random, of about 17,000 reagents tested. Over the whole deposit, 788 (4.7%) got an active call. 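Calls rest on z-score classes alone; an extra cut-off of viability at most 70% of control was not applied to them.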 Reagents against one gene are numbered here. Further read-outs or replicates are left out here. Reagent sequences are not shown.

The first 2 records, ahead of the listing:
no.	gene	reagent no.	combined z-score class	viability z-score with doxorubicin	viability z-score without drug	activity call
1	Adgra1	1	no change with or without drug	0	-1.85	inactive
2	Dpm1	1	no change with or without drug	0.34	-0.17	inactive

Results, from the start:
no.	gene	reagent no.	combined z-score class	viability z-score with doxorubicin	viability z-score without drug	activity call
1	Adgra1	1	no change with or without drug	0	-1.85	inactive
2	Dpm1	1	no change with or without drug	0.34	-0.17	inactive
3	Slc9a1	1	no change with or without drug	-0.67	-0.17	inactive
4	Adamtsl5	1	no change with or without drug	-0.45	-0.17	inactive
5	Park7	1	no change with or without drug	1.57	0.17	inactive
6	Mark2	1	no change with or without drug	1.57	-0.17	inactive
7	Or11a4	1	no change with or without drug	-1.57	-1.52	inactive
8	Eif2b3	1	low cell count with doxorubicin only	-2.47	-1.18	active
9	Irx3os	1	no change with or without drug	-0.45	1.52	inactive
10	Lpo	1	no change with or without drug	0	-0.51	inactive
11	Bfar	1	no change with or without drug	1.8	0.51	inactive
12	Smad5	1	no change with or without drug	1.35	-0.84	inactive
13	Nifk	1	no change with or without drug	-0.79	-0.17	inactive
14	Neurl1b	1	no change with or without drug	-0.9	-0.17	inactive
15	Tor1b	1	no change with or without drug	0	-0.84	inactive
16	Tardbp	1	no change with or without drug	-1.46	-1.52	inactive
17	Zfp119a	1	no change with or without drug	-0.22	0.34	inactive
18	Or5c1	1	no change with or without drug	-0.9	-1.18	inactive
19	Cln6	1	no change with or without drug	0.22	-1.18	inactive
20	Rabgap1l	1	no change with or without drug	-1.01	-1.18	inactive
21	Abhd1	1	no change with or without drug	0.45	0.51	inactive
22	D330038K10RIK	1	no change with or without drug	-1.12	-0.67	inactive
23	Champ1	1	no change with or without drug	0.56	-0.17	inactive
24	Zfyve16	1	no change with or without drug	-0.34	0.17	inactive
25	Tcf7l1	1	high cell count with doxorubicin only	2.02	1.18	inactive
26	Ssbp2	1	no change with or without drug	-0.67	-0.51	inactive
27	Vps16	1	low cell count with doxorubicin only	-2.25	-1.01	active
28	Fxyd7	1	no change with or without drug	0.67	1.85	inactive
29	Actl6b	1	no change with or without drug	-0.67	-1.69	inactive
30	Ppp1r14c	1	no change with or without drug	-0.67	1.01	inactive
31	Hnrnpl	1	no change with or without drug	-0.45	0	inactive
32	Kansl1l	1	no change with or without drug	0.56	0.17	inactive
33	H2bc8	1	no change with or without drug	0.22	0.17	inactive
34	4930512M02Rik	1	low cell count with doxorubicin only	-2.47	0.84	active
35	Crybg1	1	high cell count without drug only	1.35	2.53	inactive
36	Cd209a	1	no change with or without drug	-1.35	0.51	inactive
37	Usp53	1	no change with or without drug	0.11	0.17	inactive
38	Usp53	2	no change with or without drug	0	-0.67	inactive
39	Obi1	1	no change with or without drug	-0.11	0.17	inactive
40	Tgif2lx1	1	no change with or without drug	-1.69	-1.52	inactive
41	Zmym2	1	no change with or without drug	0.22	-0.17	inactive
42	Slc50a1	1	no change with or without drug	-0.22	0.84	inactive
43	Ttf2	1	no change with or without drug	1.35	1.52	inactive
44	A930018P22Rik	1	no change with or without drug	-1.01	0	inactive
45	Cox6a1	1	no change with or without drug	-0.45	0	inactive
46	Rhox11	1	no change with or without drug	0.34	-0.17	inactive
47	Or2l13	1	no change with or without drug	-0.67	0	inactive
48	Chat	1	no change with or without drug	-0.34	-1.01	inactive
49	Ntrk2	1	no change with or without drug	-0.22	-0.84	inactive
50	Rnf20	1	no change with or without drug	-0.67	-0.51	inactive
